Experimental data: PubChem BioAssay AID652259 (Drosophila RNAi Screening Center, 2013)

Assay: 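Knock-downs that push a Wingless-driven reporter up or down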 (primary screen)
System: Drosophila clone 8 imaginal disc epithelial cells
Reagents: long dsRNA against Drosophila genes
Challenge: pathway stimulated by co-transfected Wingless expression plasmid
Measurement: 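Dual luciferase reads per well after Wingless plasmid stimulation: reporter firefly light and Renilla control light; activity is firefly divided by Renilla, a ratio not deposited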
Reading the numbers: firefly reporter light: higher = more Wg reporter light, before normalisation; Renilla control light: higher = more transfected or surviving cells
Rule for the call: 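Strong candidates differ from their plate mean by at least two out of four per-plate statistical tests; weak candidates meet just one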
Calls: active = candidate regulator (raises or lowers reporter); inactive = not a candidate
In all, the deposit lists about 22,000 reagents; this is an unselected part of those with a known target gene and a result. In the full data, 233 (1.1%) got an active call. 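Light values are raw, unnormalised plate reads; the ratio scores behind the reporter calls were not deposited.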 Unmarked entries are inactive. No sequences are given here. Not stated in the record: the amount of reagent, the time to read-out, the dose of the treatment.

Depletion of ND-20 [DRSC20164] resulted in: firefly reporter light, replicate 1 = 3095; firefly reporter light, replicate 2 = 10176; Renilla control light, replicate 1 = 1478; Renilla control light, replicate 2 = 2986. For tbrd-3 [DRSC04295], the values are firefly reporter light, replicate 1 = 2488; firefly reporter light, replicate 2 = 4976; Renilla control light, replicate 1 = 662; Renilla control light, replicate 2 = 1104. For bero [DRSC03211], the entry reads firefly reporter light, replicate 1 = 2784; firefly reporter light, replicate 2 = 7484; Renilla control light, replicate 1 = 971; Renilla control light, replicate 2 = 2756. Against CG42538 [DRSC09412], the entry reads firefly reporter light, replicate 1 = 6148; Renilla control light, replicate 1 = 2087. Vps11 [DRSC11909] gave firefly reporter light, replicate 1 = 5748; Renilla control light, replicate 1 = 2519. Vps11 [DRSC21579] scored firefly reporter light, replicate 1 = 5.24e5; firefly reporter light, replicate 2 = 5.39e5; Renilla control light, replicate 1 = 2.10e5; Renilla control light, replicate 2 = 1.94e5.

Depletion of CG32834 [DRSC21929] came out at: firefly reporter light, replicate 1 = 3.41e5; firefly reporter light, replicate 2 = 4.23e5; Renilla control light, replicate 1 = 1.34e5; Renilla control light, replicate 2 = 1.71e5. After knock-down of babos [DRSC03923], the screen gave firefly reporter light, replicate 1 = 18097; Renilla control light, replicate 1 = 9495. Against babos [DRSC04397], the values are firefly reporter light, replicate 1 = 9065; Renilla control light, replicate 1 = 3027. For CG10063 [DRSC09688] the deposit lists firefly reporter light, replicate 1 = 3632; firefly reporter light, replicate 2 = 13257; Renilla control light, replicate 1 = 2080; Renilla control light, replicate 2 = 3415. Smyd5 [DRSC15483] scored firefly reporter light, replicate 1 = 19027; Renilla control light, replicate 1 = 4144. Silencing of Pxd [DRSC16805] gave: firefly reporter light, replicate 1 = 8200; Renilla control light, replicate 1 = 3130.

Against CG10508 [DRSC11612], the entry reads firefly reporter light, replicate 1 = 7691; Renilla control light, replicate 1 = 3180. For CG10508 [DRSC11613], the values are firefly reporter light, replicate 1 = 22938; Renilla control light, replicate 1 = 6304. CG15432 [DRSC00447] showed firefly reporter light, replicate 1 = 3506; firefly reporter light, replicate 2 = 8220; Renilla control light, replicate 1 = 342; Renilla control light, replicate 2 = 1489. Against CG31365 [DRSC15610], the values are firefly reporter light, replicate 1 = 3778; firefly reporter light, replicate 2 = 9209; Renilla control light, replicate 1 = 1961; Renilla control light, replicate 2 = 3680. CG1631 [DRSC20535] gave firefly reporter light, replicate 1 = 15731; Renilla control light, replicate 1 = 8777. Knock-down of CG7382 [DRSC03052] came out at: firefly reporter light, replicate 1 = 8380; Renilla control light, replicate 1 = 3222.

Against CG44837 [DRSC10133], the values are firefly reporter light, replicate 1 = 4624; Renilla control light, replicate 1 = 1667. Knock-down of CG44837 [DRSC10558] gave: firefly reporter light, replicate 1 = 4901; Renilla control light, replicate 1 = 2275. With knock-down of CG34112 [DRSC12235], the screen gave firefly reporter light, replicate 1 = 15564; Renilla control light, replicate 1 = 4119. For pgc [DRSC04099], the values are firefly reporter light, replicate 1 = 2038; firefly reporter light, replicate 2 = 9987; Renilla control light, replicate 1 = 583; Renilla control light, replicate 2 = 3520. For CG17508 [DRSC07771] the deposit lists firefly reporter light, replicate 1 = 3650; Renilla control light, replicate 1 = 2297. CG10646 [DRSC09764] gave firefly reporter light, replicate 1 = 4836; Renilla control light, replicate 1 = 1309.

Silencing of CG2811 [DRSC04318] came out at: firefly reporter light, replicate 1 = 2749; firefly reporter light, replicate 2 = 5954; Renilla control light, replicate 1 = 744; Renilla control light, replicate 2 = 2290. shtd [DRSC20166] gave firefly reporter light, replicate 1 = 2732; firefly reporter light, replicate 2 = 7672; Renilla control light, replicate 1 = 934; Renilla control light, replicate 2 = 2305. Knock-down of Mettl14 [DRSC03073] came out at: firefly reporter light, replicate 1 = 11120; Renilla control light, replicate 1 = 4353. After knock-down of CG14839 [DRSC14963], the record shows firefly reporter light, replicate 1 = 20598; firefly reporter light, replicate 2 = 7.84e5; Renilla control light, replicate 1 = 6100; Renilla control light, replicate 2 = 3.32e5. Against CR10032 [DRSC12499] the deposit lists firefly reporter light, replicate 1 = 12823; Renilla control light, replicate 1 = 4029. robl22E [DRSC00289] scored firefly reporter light, replicate 1 = 2790; firefly reporter light, replicate 2 = 8028; Renilla control light, replicate 1 = 1128; Renilla control light, replicate 2 = 2875.

Silencing of EndoB [DRSC07345] gave: firefly reporter light, replicate 1 = 5973; Renilla control light, replicate 1 = 2394. Against Cyp311a1 [DRSC20239], the entry reads firefly reporter light, replicate 1 = 21172; Renilla control light, replicate 1 = 11861.

5 entries already listed, ordered by “firefly reporter light, replicate 1”, lowest first.
pgc [DRSC04099] — firefly reporter light, replicate 1: 2038; firefly reporter light, replicate 2: 9987; Renilla control light, replicate 1: 583; Renilla control light, replicate 2: 3520
CG2811 [DRSC04318] — firefly reporter light, replicate 1: 2749; firefly reporter light, replicate 2: 5954; Renilla control light, replicate 1: 744; Renilla control light, replicate 2: 2290
CG17508 [DRSC07771] — firefly reporter light, replicate 1: 3650; Renilla control light, replicate 1: 2297
CG10646 [DRSC09764] — firefly reporter light, replicate 1: 4836; Renilla control light, replicate 1: 1309
CG34112 [DRSC12235] — firefly reporter light, replicate 1: 15564; Renilla control light, replicate 1: 4119
